Measured values from the supplement of paper PMC11150407.
The campaign covered roughly 3,000 compounds. About 45 (2%) showed an effect of 50% or more. Some of the results follow.

The compounds below were run on MOLM1 and UCSD/AML1 (averaged) (assay: cell viability relative to DMSO control (POC); higher = less growth inhibition). Conditions: 1 µM; 72 h.
Experimental: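 Primary viability screen in the 3q26 EVI1-high AML cell lines MOLM1 and UCSD/AML1, compounds at 1 uM for 72 h. ATP CellTiter-Glo read-out given as percent viable over DMSO control (POC), averaged over duplicates. This mapping covers the TimTec NDL-3000 natural derivative library, whose compounds are identified by TimTec catalogue codes (ST...).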

| SMILES | cell viability [%] |
| --- | --- |
| CCOC(=O)CCC(=O)Nc1cccc(C(C)=O)c1 | 104 |
| Cc1nn(CC(=O)NCCc2c(C)[nH]c3ccc(OCc4ccccc4)cc23)c(C)c1Cl | 95.2 |
| COc1ccc(C(=O)N2CCN(c3ccccc3)CC2)cc1OC | 111 |
| CC(C)OC(=O)C1=C(N)Oc2c(oc(CO)cc2=O)C1c1c(Cl)cccc1Cl (centres undefined) | 104 |
| COc1cc(-c2nnc(CSc3nnc(-c4ccco4)n3-c3ccccc3)o2)cc(OC)c1OC | 108 |
| CCC(Sc1nc2c(=O)[nH]cnc2n1C)C(=O)Nc1ccc(C(C)C)cc1 (centres undefined) | 100 |
| CS(=O)(=O)c1ccc2nc(NC(=O)CN3CCc4ccccc4C3)sc2c1 | 101 |
| CCCC/C(O)=C1\C(=O)CC(c2ccccc2)CC1=NCCc1c(C)[nH]c2ccc(OCc3ccccc3)cc12 (centres undefined) | 95.6 |
| CC(Nc1n[nH]c(=O)[nH]c1=O)C(=O)N/N=C/c1ccccc1 (centres undefined) | 98.2 |
| CCCOc1ccc(NCCC(=O)c2cc3ccccc3oc2=O)cc1 | 106 |
| O=C(NCCSCc1ccc(Cl)cc1)c1ccc(CN2CCc3ccccc3C2)cc1 | 108 |
| Cn1c(=O)cc(/C=N/O)c2ccccc21 | 90.4 |
| Cn1c(=O)c2c(ncn2CC(O)CN=CN2CCOCC2)n(C)c1=O (centres undefined) | 99.3 |
| O=C(/C=C/c1ccc(Cl)cc1)N1CCCCC1 | 104 |
| O=C1ON=C(c2ccccc2)/C1=C/c1ccc2c(c1)OCO2 | 101 |
| COc1ccc(-c2coc3cc(OC4OC(COC(C)=O)C(OC(C)=O)C(OC(C)=O)C4OC(C)=O)ccc3c2=O)cc1 (centres undefined) | 74.8 |
| COc1ccc(NC(=O)Cc2ccc(OC)c(OC)c2)c(OC)c1 | 95.8 |
| COc1cc(C(=O)CCNc2ccc(F)c(Cl)c2)cc(OC)c1OC | 84.7 |
| N#CC1=C(N)Oc2c(oc(CO)cc2=O)C1c1ccccc1[N+](=O)[O-] (centres undefined) | 100 |
| Cc1ccc(NCC(=O)N/N=C\c2c(C)cc(O)cc2O)cc1 | 89.8 |
| C=CCNC(=O)C(O)C(O)C(=O)NCC=C (centres undefined) | 101 |
| COc1cc(OC)cc(C(=O)Nc2ccccc2C(=O)Nc2cccc(C)c2C)c1 | 106 |
| Cc1ccc(-n2c(SCc3cccc(F)c3)nc3c(=O)[nH]cnc32)cc1 | 104 |
| Nc1nc2c(c(=O)[nH]1)NC(NCCc1ccccc1)N2C1OC(CO)C(O)C1O (centres undefined) | 97.3 |
| O=c1oc2cc(O)ccc2c(-c2ccccc2)c1-c1cccc(Cl)c1 | 97.6 |
| COc1cc(O)c(C(=O)Cc2ccc(Br)cc2)c(OC)c1 | 112 |

| SMILES | cell viability [%] |
| --- | --- |
| CC(=O)OC1C(=O)OC2C1OC(n1ccc(=O)[nH]c1=O)C2OC(C)=O (centres undefined) | 88.9 |
| O=C(O)/C=C/c1ccc(Cl)c(Cl)c1 | 97.8 |
| O=C(O)C(O)C(O)C(O[C@@H]1O[C@H](CO)[C@H](O)[C@H](O)[C@H]1O)C(O)CO (some centres undefined) | 114 |
| COc1cc(C2=NOC(C(=O)N(C)c3ccccc3)C2)cc(OC)c1OC (centres undefined) | 98.8 |
| CCCC(=O)NC1C(=O)N2C(C(=O)O)=C(COC(C)=O)CSC12 (centres undefined) | 106 |
| CC(C)(C)OC(=O)N[C@@H](Cc1ccc(OC(C)(C)C)cc1)C(=O)O | 91.3 |
| COc1cc(C(=O)Oc2c(Br)cc(Br)cc2/C=N\NC(=O)c2ccc(C)nc2)cc(OC)c1OC | 82.8 |
| CSCCC(NS(=O)(=O)c1ccc(C)cc1)C(=O)O (centres undefined) | 102 |
| COc1cc(OC)cc(C(=O)Nc2cccc(Cl)c2)c1 | 101 |
| Cc1cc2c(C(C)C)c(O)c(O)c(/C=N/NC(N)=S)c2c(O)c1-c1c(O)cc2c(/C=N/NC(N)=S)c(O)c(O)c(C(C)C)c2c1C | 110 |
| COc1cc(-c2cc(-c3ccc(C)cc3)c(C#N)c(=O)[nH]2)cc(OC)c1OC | 109 |
| O=C(/C=C/c1ccccc1Cl)Oc1ccc(C=Nc2ccc(F)cc2)cc1 | 104 |
| Cc1cccc(N2CCN(Cc3cc(=O)oc4cc(C)cc(C)c34)CC2C)c1 (centres undefined) | 109 |
| CC(C)S[C@@H]1O[C@H](CO)[C@H](O)[C@H](O)[C@H]1O | 102 |
| O=C(CSc1nc2ccccc2c(=O)[nH]1)c1ccc(Cl)c(Cl)c1 | 99.1 |
| Cc1cc(Oc2cc(C)c(Cl)c(C)c2)nc(SCC(=O)c2ccccc2)n1 | 98.7 |
| CC(C)C1=CC2=CCC3C(C)(C(=O)NCCNC(=O)C4(C)CCCC5(C)C6CCC(C(C)C)=CC6=CCC45)CCCC3(C)C2CC1 (centres undefined) | 105 |
| CC(C)CC(C(=O)O)N1C(=O)c2cccc3cccc(c23)C1=O (centres undefined) | 98.6 |
| Cc1[nH]nc2c1C(c1ccc(O)cc1)C(C#N)=C(N)O2 (centres undefined) | 95.7 |
| COc1cc(C(=O)CN(Cc2ccccc2)Cc2ccccc2)ccc1O | 90.2 |
| Cc1cc(=O)n(C)c(=O)n1Cc1ccccc1C#N | 107 |
| CSc1cccc(NC(=O)CSc2nc3c(=O)[nH]cnc3n2C)c1 | 98 |
| Cc1ccc(OCCn2cc(Br)c(=O)[nH]c2=O)cc1 | 89.3 |
| COCCOC(=O)c1c(C)n(CCSc2ccccc2)c2c1cc(O)c1ccccc12 | 85.8 |
| O=C(CCNc1ccc(F)cc1)c1cc2ccccc2oc1=O | 102 |
| Cc1cc2c(cc1S(=O)(=O)NC(Cc1c[nH]c3ccccc13)C(=O)O)NC(=O)CO2 (centres undefined) | 102 |

Looked up by structure from the list above:

| SMILES | cell viability [%] |
| --- | --- |
| COc1ccc(NC(=O)Cc2ccc(OC)c(OC)c2)c(OC)c1 | 95.8 |
| Cc1cccc(N2CCN(Cc3cc(=O)oc4cc(C)cc(C)c34)CC2C)c1 (centres undefined) | 109 |
| CCCC(=O)NC1C(=O)N2C(C(=O)O)=C(COC(C)=O)CSC12 (centres undefined) | 106 |
| O=C(O)/C=C/c1ccc(Cl)c(Cl)c1 | 97.8 |

4 consecutive records out of the list so far, for reference:

| SMILES | cell viability [%] |
| --- | --- |
| CC(Nc1n[nH]c(=O)[nH]c1=O)C(=O)N/N=C/c1ccccc1 (centres undefined) | 98.2 |
| CCCOc1ccc(NCCC(=O)c2cc3ccccc3oc2=O)cc1 | 106 |
| O=C(NCCSCc1ccc(Cl)cc1)c1ccc(CN2CCc3ccccc3C2)cc1 | 108 |
| Cn1c(=O)cc(/C=N/O)c2ccccc21 | 90.4 |

Carrying on:

| SMILES | cell viability [%] |
| --- | --- |
| COc1ccc(/C=C/C(=O)c2cccs2)cc1 | 96 |
| O=C(/C=C/c1ccccc1)c1ccc(O)c(O)c1O | 82.5 |
| COc1ccc2c(c1)c(CC(=O)NCc1ccccn1)c(C)n2C(=O)c1ccc(Cl)cc1 | 84.5 |
| O=C(O)Cn1c(=O)c2c(c3ccccc31)CCC2 | 91.2 |
| O=C(O)/C=C/c1cccc(NS(=O)(=O)Oc2ccc([N+](=O)[O-])cc2)c1 | 106 |
| COC(=O)C1(C)CCC2(C)CCC3(C)C(=CC(=O)C4C5(C)CCC(=O)C(C)(C)C5CCC43C)C2C1 (centres undefined) | 95.7 |
| Cc1[nH]c2ccccc2c1CCNC(=O)c1cc([N+](=O)[O-])ccc1Cl | 94.4 |
| O=C(NCc1ccccc1)c1ccc(NCCC(=O)c2cc3ccccc3oc2=O)cc1 | 91.9 |
| CCOC(=O)c1ccc(O)c(OC)c1 | 96.1 |
| COc1ccc(C(=O)Nc2ccc(C(=O)c3nccn3C)cc2)cc1OC | 97.9 |
| COc1cc(C(=O)N2CCOCC2)cc(OC)c1OC | 98.2 |
| CCCCC(=O)O[C@]1(C(=O)CO)[C@@H](C)C[C@H]2[C@@H]3CCC4=CC(=O)C=C[C@]4(C)[C@@]3(F)[C@@H](O)C[C@@]21C | 68.6 |
| Cc1ccc2c(CN3CCN(Cc4ccccc4F)CC3)cc(=O)oc2c1 | 97.1 |
| COC(=O)c1[nH]c(=O)[nH]c(=O)c1Br | 106 |
| COc1cc(CCO)ccc1O | 96.6 |
| CCOc1ccc(CCNC(=O)c2cc3cc(OC)ccc3oc2=O)cc1OCC | 107 |
| COc1ccc(NC(=O)Cn2c(=O)cc(C(=O)N3CCCC3)c3ccccc32)cc1Cl | 107 |
| CCOc1ccc(-c2oc3ccccc3c(=O)c2OS(=O)(=O)c2ccc(C)cc2)cc1 | 102 |
| CC(NC(=O)Nc1ccccc1)C(=O)O (centres undefined) | 96.4 |
| CCOC(=O)CNC(=O)c1ccc(OC)c([N+](=O)[O-])c1 | 95.3 |
| CCSCCOC(=O)C1=C(C)NC2=C(C(=O)CCC2)C1c1cc(Br)c(O)c(OC)c1 (centres undefined) | 95.2 |
| COc1cc(OC)c2c(c1)OC(c1ccc(OC)c(OC)c1)C(O)C2=O (centres undefined) | 97 |
| N=c1oc2ccccc2cc1C(=O)Nc1cccc(Cl)c1 | 83.9 |
| CNC(=O)c1cc(=O)n(CC(=O)Nc2ccc(C)cc2Cl)c2ccccc12 | 101 |
| Cc1ccc(-c2cc(=O)c3cc(OCC(=O)OC(C)C)ccc3o2)cc1 | 106 |
| CCOc1ccc(CCn2c(C34CC5CC(CC(C5)C3)C4)cn3c4c(=O)n(C)c(=O)n(C)c4nc23)cc1OCC | 96.4 |

| SMILES | cell viability [%] |
| --- | --- |
| CCC(=O)Oc1c(-c2ccccc2Cl)oc2ccccc2c1=O | 101 |
| CCOC(=O)c1c(C)n(-c2ccccc2)c2cc(Br)c(OC)cc12 | 110 |
| COCCOC(=O)C1=C(C)NC2=C(C(=O)CC(c3ccc(Cl)cc3)C2)C1c1ccc(O)c(OC)c1 (centres undefined) | 95.8 |
| Nc1c(C(=O)N2CCc3ccccc3C2)sc2nc(-c3ccc4c(c3)OCO4)cc(C(F)(F)F)c12 | 104 |
| CCOc1cc2c(cc1/C=C1/NC(=O)N(CC(=O)Nc3ccc(Cl)cc3)C1=O)OCO2 | 97.7 |
| O=C(Cn1c(=O)cc(C(=O)N2CCCCC2)c2ccccc21)NCCc1ccccc1 | 99.7 |
| COc1cc2[nH]c(=O)c(C(=O)NCc3cccnc3)c(O)c2cc1OC | 98.7 |
| Nc1c(C(=O)NCCc2c[nH]c3ccccc23)sc2nc(-c3ccccn3)ccc12 | 102 |
| COc1ccc(NC(=O)C(=O)c2c[nH]c3cc(F)ccc23)cc1 | 95.4 |
| COc1ccc(C[C@H](N)C(=O)O)cc1 | 103 |
| COc1ccc(-c2c(-c3ccccc3)cn3ccc4cc(OC)c(OC)cc4c23)cc1OC | 109 |
| COc1ccccc1NC(=O)CSc1nc2c(=O)[nH]cnc2n1C | 93.1 |
| Cn1c(C(=O)NCc2ccco2)c(Br)c(=O)n(C)c1=O | 103 |
| C=C(C)C1CCC2(C=O)CCC3(C)C(CCC4C5(C)CCC(=O)C(C)(C)C5CCC43C)C12 (centres undefined) | 102 |
| O=C1CC2(CCCCC2)Oc2ccc(O)cc21 | 107 |
| CCN1CCN(Cc2nc3c(c(=O)[nH]c(=O)n3C)n2Cc2c(F)cccc2Cl)CC1 | 98.8 |
| O=c1c(O)c(-c2ccccc2)oc2ccccc12 | 95 |
| COc1ccc2oc(C(Cl)(Cl)Cl)cc(=O)c2c1 | 3.78 |
| COc1cc(O)c(C(C)=O)cc1OC | 99.9 |
| COC(=O)C1Cc2c([nH]c3ccccc23)C(c2ccccc2OC)N1 (centres undefined) | 102 |
| COc1ccc(C2CC(=O)c3ccccc3O2)cc1OC (centres undefined) | 109 |
| CCOC(=O)C1C(c2cc(OC)c(OC)c(OC)c2)c2cc3c(cc2OC1(C)OC)OCO3 (centres undefined) | 92 |
| CCOC(=O)C(Cc1c[nH]c2ccccc12)NC(=O)c1ccc(C)cc1 (centres undefined) | 95.4 |
| O=C(c1ccco1)N1CCC2(O)CCCCC2C1c1ccc(F)cc1 (centres undefined) | 90.8 |
| COC(=O)C1=C(C)NC2=C(C(=O)CC(C)(C)C2)C1c1ccc(OC)cc1 (centres undefined) | 92 |
| Cn1c(C(=O)N2CCOCC2)c(Br)c(=O)n(C)c1=O | 102 |
